From patent US10653144B2, “Pesticidal and parasiticidal vinyl isoxazoline compounds” (BOEHRINGER INGELHEIM ANIMAL HEALTH USA INC., priority 2016, dated 2020)
Some of these results come from one statement about several compounds together.

Test system: A. aegypti L1 larvae
Experiment: A. aegypti L1 larvae motility dose response assay
Conditions: diluted LB media, 25° C., 48 h, motility vs DMSO control wells
Procedure: Efficacy of Compounds Against A. aegypti Mosquitos Compounds were formulated in 100% DMSO are added to microtiter plates containing 180 μl of diluted LB media (Luria-Bertani media is a combination of tryptone, salt and yeast extract). Ten A. aegypti L1 larvae are added and the plates are incubated at 25° C. for 48 h. The efficacy of a compound is determined based on the motility of the larvae as compared to average motility of control wells containing DMSO only. A dose response assay was conducted to determine an EC50 value.

| SMILES | EC50 |
| --- | --- |
| O=C(CNC(=O)c1ccc(/C=C/C2=NOC(c3cc(Cl)cc(C(F)(F)F)c3)(C(F)(F)F)C2)n2cncc12)NCC(F)(F)F (centres unmarked) [Compound 5, 2-([5-[2-[5-[3-chloro-5-(trifluoromethyl)phenyl]-5-(trifluoromethyl)-4,5-dihydro-1,2-oxazol-3-yl]ethenyl]imidazo[1,5-a]pyridin-8-yl]formamido)-N-(2,2,2-trifluoroethyl)acetamide] | < 15 µM |
| O=C(NCCC(F)(F)F)c1ccc(/C=C/C2=NOC(c3cc(Cl)cc(C(F)(F)F)c3)(C(F)(F)F)C2)n2cncc12 (centres unmarked) [Compound 6, 5-[2-[5-[3-chloro-5-(trifluoromethyl)phenyl]-5-(trifluoromethyl)-4,5-dihydro-1,2-oxazol-3-yl]ethenyl]-N-(3,3,3-trifluoropropyl)imidazo[1,5-a]pyridine-8-carboxamide] | < 15 µM |
